Source: the supplement of paper PMC10689618
Some of the results follow. Single values are uncertain, as repeats are few or missing.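 Labelled rat cortical synaptosomes were engulfed by primary human fetal astrocytes. Engulfment equaled a red/green ratio, corrected for calcein live-cell signal and normalized to the plate median. Compounds were toxic when calcein dropped over 30%, and reduced phagocytosis when below 70% of the median above 5 µM.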

Assays:
Human fetal astrocytes [1] = experiment: loss of total cells relative to no-compound high-control median (toxicity); higher = more toxic (fewer cells); details: 24 h
Human fetal astrocytes [2] = experiment: synaptosome phagocytosis (pHrodo/calcein intensity ratio) relative to plate median of data wells; higher = more phagocytosis; details: 24 h

SMILES	loss of total cells (Human fetal astrocytes [1]; 1.39 µM)	loss of total cells (Human fetal astrocytes [1]; 2.78 µM)	loss of total cells (Human fetal astrocytes [1]; 5.56 µM)	loss of total cells (Human fetal astrocytes [1]; 11.11 µM)	loss of total cells (Human fetal astrocytes [1]; 22.22 µM)	synaptosome phagocytosis (Human fetal astrocytes [2]; 1.39 µM)	synaptosome phagocytosis (Human fetal astrocytes [2]; 2.78 µM)	synaptosome phagocytosis (Human fetal astrocytes [2]; 5.56 µM)	synaptosome phagocytosis (Human fetal astrocytes [2]; 11.11 µM)	synaptosome phagocytosis (Human fetal astrocytes [2]; 22.22 µM)
C[C@@H]1C[C@H]2[C@@H]3C[C@H](F)C4=CC(=O)C=C[C@]4(C)[C@@]3(F)[C@@H](O)C[C@]2(C)[C@@]1(O)C(=O)COC(=O)C(C)(C)C	-8.6%	-21.4%	0%	-14.1%	-8.2%	125%	101%	110%	131%	84.3%
CCN[C@@H]1C[C@H](N)[C@@H](O[C@H]2OC(CN)=CC[C@H]2N)[C@H](O)[C@H]1O[C@H]1OC[C@](C)(O)[C@H](NC)[C@H]1O	-18.5%	-19%	5%	8.9%	12.1%	102%	132%	148%	103%	106%
CC[C@H]1OC(=O)[C@H](C)[C@@H](O[C@H]2C[C@@](C)(OC)[C@@H](O)[C@H](C)O2)[C@H](C)[C@@H](O[C@@H]2O[C@H](C)C[C@H](N(C)C)[C@H]2O)[C@](C)(O)C[C@@H](C)[C@@H]2N[C@@H](COCCOC)O[C@H]([C@H]2C)[C@]1(C)O	-14.1%	-18.6%	-0.3%	-11.7%	16.4%	81.3%	86.3%	112%	130%	126%
Nc1ccc(C(=O)Oc2ccccc2)c(O)c1	-6.6%	8.2%	-3.9%	7.8%	-0.6%	101%	101%	120%	89.2%	109%
CCOC(=O)c1c(C)cc(O)c(C=O)c1O	-15.6%	-12.6%	25.2%	49%	5.6%	91.6%	51.2%	94.8%	72.4%	83.7%
NC(Cc1ccc(F)cc1)C(=O)O (stereo not given)	-5.4%	6.1%	24.6%	-16.3%	18.9%	75%	106%	136%	121%	104%
O.O.O.O.O=C([O-])CC(O)(CC(=O)[O-])C(=O)[O-].[Li+].[Li+].[Li+]	19.4%	-27.8%	5.6%	-6.2%	5.9%	110%	103%	82.1%	85.3%	120%
CC(N/C(=N\C#N)Nc1ccncc1)C(C)(C)C (stereo not given)	-15.8%	-22.9%	-6.3%	-18.8%	4.5%	117%	93.1%	99.3%	117%	84.6%
O=C1OC(c2ccc(O)cc2)(c2ccc(O)cc2)c2ccccc21	6.2%	-15.9%	-22.3%	1.4%	-2.7%	86.2%	99.7%	153%	93.3%	98.1%
CCn1cc(C(=O)O)c(=O)c2cc(F)c(N3CCNCC3)nc21	-12.1%	28.6%	-8.1%	41.6%	-7.8%	41.1%	133%	87.2%	145%	87.4%
COC(=O)C(N)CS (stereo not given)	16.2%	1.1%	23.9%	7.9%	27.3%	121%	87.9%	90.3%	99.6%	116%
CC(=O)OCC(=O)[C@@]1(O)CC[C@H]2[C@@H]3CCC4=CC(=O)C=C[C@]4(C)[C@@]3(Cl)[C@@H](Cl)C[C@@]21C	17%	15.5%	14.5%	-0.4%	0.8%	136%	126%	148%	124%	74.5%
C1CNCCN1	-6.8%	-13.9%	6.3%	-13%	-13.7%	98.9%	87.8%	101%	118%	94.8%
CCCCC[C@H](CC(=O)NO)C(=O)N[C@H](C(=O)N1CCC[C@H]1CO)C(C)C [Actinonin]	-19.9%	13.3%	-19.1%	26.5%	-10%	91.9%	155%	75.8%	89.7%	105%
NC(=O)N/N=C/c1ccc([N+](=O)[O-])o1	6.8%	-8.5%	-13.2%	8.4%	-33.1%	97.8%	122%	67.2%	90.2%	68.3%
COc1cc2c(cc1OC)Cc1cc(OC)c(OC)cc1Cc1cc(OC)c(OC)cc1C2	-20.5%	14.1%	2.2%	2.7%	15.6%	114%	137%	126%	102%	122%
COC(=O)C[C@H]1C(C)(C)[C@@H](O)[C@@H]2CC3=C4CC(O)O[C@@H](c5ccoc5)[C@]4(C)CCC3[C@@]1(C)C2=O (stereo partly drawn) [3,16-DIDEOXYMEXICANOLIDE-3beta-DIOL]	13.4%	34.6%	-4.6%	8.4%	8.5%	53.3%	90.1%	99.5%	54.6%	87.3%
NS(=O)(=O)c1cc2c(cc1Cl)N=C(CSCc1ccccc1)NS2(=O)=O	-14.9%	5.8%	-11.1%	10.2%	-1.1%	135%	86%	91.4%	179%	125%
O=C(O[C@@H]1Cc2c(O)cc(O)cc2O[C@@H]1c1ccc(O)c(O)c1)c1cc(O)c(O)c(O)c1	0.4%	0%	37.4%	43.9%	30.7%	120%	120%	141%	93.7%	75.4%
NC(N)=O	-8.6%	-5.1%	-13.2%	-9.5%	28.9%	100%	79.6%	84.7%	124%	101%

3 successive records from above, for reference:
SMILES	loss of total cells (Human fetal astrocytes [1]; 1.39 µM)	loss of total cells (Human fetal astrocytes [1]; 2.78 µM)	loss of total cells (Human fetal astrocytes [1]; 5.56 µM)	loss of total cells (Human fetal astrocytes [1]; 11.11 µM)	loss of total cells (Human fetal astrocytes [1]; 22.22 µM)	synaptosome phagocytosis (Human fetal astrocytes [2]; 1.39 µM)	synaptosome phagocytosis (Human fetal astrocytes [2]; 2.78 µM)	synaptosome phagocytosis (Human fetal astrocytes [2]; 5.56 µM)	synaptosome phagocytosis (Human fetal astrocytes [2]; 11.11 µM)	synaptosome phagocytosis (Human fetal astrocytes [2]; 22.22 µM)
COC(=O)C[C@H]1C(C)(C)[C@@H](O)[C@@H]2CC3=C4CC(O)O[C@@H](c5ccoc5)[C@]4(C)CCC3[C@@]1(C)C2=O (stereo partly drawn) [3,16-DIDEOXYMEXICANOLIDE-3beta-DIOL]	13.4%	34.6%	-4.6%	8.4%	8.5%	53.3%	90.1%	99.5%	54.6%	87.3%
NS(=O)(=O)c1cc2c(cc1Cl)N=C(CSCc1ccccc1)NS2(=O)=O	-14.9%	5.8%	-11.1%	10.2%	-1.1%	135%	86%	91.4%	179%	125%
O=C(O[C@@H]1Cc2c(O)cc(O)cc2O[C@@H]1c1ccc(O)c(O)c1)c1cc(O)c(O)c(O)c1	0.4%	0%	37.4%	43.9%	30.7%	120%	120%	141%	93.7%	75.4%

Following part.

SMILES	loss of total cells (Human fetal astrocytes [1]; 1.39 µM)	loss of total cells (Human fetal astrocytes [1]; 2.78 µM)	loss of total cells (Human fetal astrocytes [1]; 5.56 µM)	loss of total cells (Human fetal astrocytes [1]; 11.11 µM)	loss of total cells (Human fetal astrocytes [1]; 22.22 µM)	synaptosome phagocytosis (Human fetal astrocytes [2]; 1.39 µM)	synaptosome phagocytosis (Human fetal astrocytes [2]; 2.78 µM)	synaptosome phagocytosis (Human fetal astrocytes [2]; 5.56 µM)	synaptosome phagocytosis (Human fetal astrocytes [2]; 11.11 µM)	synaptosome phagocytosis (Human fetal astrocytes [2]; 22.22 µM)
c1ccc2[nH]c(-c3cscn3)nc2c1	7.4%	16.6%	-14.6%	4.9%	2.7%	94.3%	69.1%	118%	111%	114%
CC(=O)O[C@H]1C[C@@]2(C)[C@@H](C[C@@H](O)[C@H]3[C@@]4(C)CC[C@@H](O)[C@@H](C)[C@@H]4CC[C@@]32C)/C1=C(\CCC=C(C)C)C(=O)O	-16.9%	17.3%	-8.4%	13%	48.3%	108%	95.6%	117%	79.8%	103%
CC[C@]1(O)C[C@@H]2CN(CCc3c([nH]c4ccccc34)[C@@](C(=O)OC)(c3cc4c(cc3OC)N(C)[C@H]3[C@@](O)(C(=O)OC)[C@H](OC(C)=O)[C@]5(CC)C=CCN6CC[C@]43[C@@H]65)C2)C1	-5.8%	28.4%	27.9%	18.8%	23.2%	90.6%	127%	80.4%	99.7%	95.3%
OC[C@H]1O[C@@H](O[C@@H]2[C@@H](CO)OC(O)(CO)[C@H]2O)[C@H](O)[C@@H](O)[C@H]1O (mixture of isomers)	6.2%	-30.8%	10.5%	-7.8%	37.4%	104%	95.4%	92.8%	99.1%	116%
COc1c(N2C[C@@H]3CCCN[C@@H]3C2)c(F)cc2c(=O)c(C(=O)O)cn(C3CC3)c12	-22.6%	-34.9%	4.3%	30.5%	6.5%	115%	103%	110%	105%	88.6%
CC1=C(C(=O)O)N2C(=O)[C@@H](NC(=O)[C@H](N)C3=CCC=CC3)[C@H]2SC1	-22.4%	-0.3%	-0.3%	-16.4%	-13.6%	86.3%	101%	92.7%	114%	105%
COC1=CC(=O)C(C(=O)c2ccccc2)=CC1=O	4.7%	-3.3%	43.5%	1.9%	41.9%	131%	73%	148%	96.7%	108%
CC(=O)c1ccc[nH]1	-21.4%	4.7%	-15.3%	0%	-13%	120%	149%	115%	111%	140%
CCN(CC)CCOCCOC(=O)C1(c2ccccc2)CCCC1	-26.6%	-11.9%	-15.3%	-5.5%	2.8%	90.7%	58.2%	83.2%	72.7%	84.3%
CC1(C)C=Cc2cc3ccc(=O)oc3cc2O1	38%	3.3%	-32.1%	11%	-1.1%	147%	107%	55.2%	136%	102%
C=CCSCC(N)C(=O)O (stereo not given)	3.3%	-1.1%	-1.5%	11.5%	15.6%	113%	100%	84.1%	123%	81%
CC(=O)Nc1ncc([N+](=O)[O-])s1	29%	-29.4%	5%	-9.5%	-0.9%	135%	82.9%	101%	62.1%	93.8%
O=c1c2ccccc2oc2ccccc12	-7.6%	1.3%	-4.6%	35.5%	5.6%	72.9%	87.7%	104%	115%	83.7%
COc1ccc2cc([C@H](C)CO)ccc2c1	-32.3%	-13.5%	12.4%	31.1%	6.5%	115%	101%	118%	135%	122%
CC12CCC(CC1)C(C)(C)O2	8.3%	14.1%	2.2%	2.1%	16.7%	106%	146%	106%	108%	143%
COc1ccccc1OCC(O)CO (stereo not given)	-20.5%	-18.6%	-36.2%	-10.7%	38%	103%	128%	111%	124%	126%
CC1CCC(NC(=O)N(CCCl)N=O)CC1 (stereo not given)	-28.2%	-21.4%	0%	-0.3%	-1.6%	81.1%	117%	102%	101%	86%
COc1ccc(/C=C/C(=O)c2ccc(O)cc2O)cc1	-24.6%	-8.3%	0%	13.5%	-0.7%	100%	89.6%	112%	133%	98.8%
CCCCC(CC)COC(=O)c1ccccc1O (stereo not given)	-19.9%	4.7%	28.2%	-6.5%	9.3%	101%	108%	116%	102%	87.7%
CC/C(=C(/CC)c1ccc(O)cc1)c1ccc(O)cc1	3.9%	-26.8%	-14.6%	6.1%	-8.2%	118%	111%	110%	88.1%	81.2%
